Measurements reported in PubChem BioAssay AID540276 (National Center for Advancing Translational Sciences (NCATS), 2011).
Among all 300,000 compounds or so, about 5,400 (1.8%) were called active. The inconclusive results got no clear call from the source; some entries with a clear call stand among them for comparison. Calls follow the shape of the full dose curve; tested in HEK293 cells. Potencies beside an inconclusive call are fits to weak or partial responses and may not hold up.

Experiment: qHTS for inhibitors of binding or entry into cells for Marburg Virus
Details: Marburg virus pseudotyped entry inhibition, cell reporter; activity change, negative = inhibition: at 37.8 µM (top of the series) unless noted
% is scaled to controls: 0 for no effect and ±100 for the full control effect; potency is read from the fitted curve at half-maximal effect.

Compound | activity change, negative = inhibition | Potency
COC(CNc1nc(SC)nc2sc3c(c12)CCN(C)C3)OC | inactive: -1.96% [at 46.1 µM] | –
CCOc1ccc(S(=O)(=O)Nc2nc3ccccc3nc2Nc2ccc(OC)cc2)cc1 | – | inconclusive: 10 µM [activator, partial curve]
O=C(NCCc1ccccc1)c1cnc(Cl)c(Cl)c1 | inactive: -8.27% | –
O=C1CC(c2cccc(Cl)c2)CC(O)=C1C=NC1CCCC1 (centres undefined) | – | inconclusive: 31.6 µM [activator, partial curve, poor fit]
Cc1ccc2nc(-c3cccnc3)c(Nc3ccccc3C)n2c1 | – | inconclusive: 22.4 µM [inhibitor, single point]
Cc1nc(-c2ccccn2)sc1C(=O)Nc1ccc(F)cc1F | – | inconclusive: 2.51 µM [activator, full curve]
Cc1nc2ccccc2c(=O)n1/N=C/c1c(O)ccc2oc3c(c12)CCCC3 | – | inconclusive: 12.6 µM [inhibitor, single point]
COc1cccc(NC(=O)CCN2CCN(c3ccccc3F)CC2)c1 | – | inconclusive: 20.6 µM [inhibitor, single point]
COc1ccccc1C1CCCN1Cc1nc(-c2ccc(C)s2)oc1C (centres undefined) | – | inconclusive: 1.26 µM [inhibitor, full curve, poor fit]
O=C(c1nc2ccccc2s1)N1CCN(c2ccccn2)CC1 | – | inconclusive: 35.5 µM [activator, single point]
CCCCNC(=O)c1cc2nc3c(c(C(F)(F)F)n2n1)CCc1ccccc1-3 | inactive: 20.5% | –
CCc1ccccc1S(=O)(=O)Cc1ccc(C(=O)NCC2CCCO2)o1 (centres undefined) | inactive: 4.62% | –
O=C(NCc1ccc2c(c1)OCO2)C(=O)Nc1cc2c3c(c1)CC(=O)N3CCC2 | inactive: -5.77% | –
COC(=O)[C@H](CC(C)C)NC(=O)N1CCCCC1 | inactive: -15.5% [at 46.1 µM] | –
Cc1cccc(NC(=O)C(NS(=O)(=O)c2ccc3c(c2)oc(=O)n3C)C(C)C)c1 (centres undefined) | inactive: 16.4% [at 46.1 µM] | –
COc1ccc2c(c1)[nH]c1c(Cl)ncnc12 | – | inconclusive: 35.5 µM [inhibitor, partial curve, poor fit]
CCCOc1ccc(OCCOCCNCc2ccccc2)cc1 | – | inconclusive: 22.4 µM [inhibitor, single point]
O=C(NC1CCCC1)C(c1ccccc1)N(C(=O)c1ccno1)c1ccccc1 (centres undefined) | inactive: 3.02% | –
Nc1c(Br)cc2oc(-c3ccccc3)nc2c1Br | – | inactive
CCN(CC(=O)NCc1ccc(F)cc1)C(=O)/C=C/c1ccc(OC)c(S(=O)(=O)NC(C)C)c1 | – | inconclusive: 0.708 µM [inhibitor, full curve, poor fit]
COc1cc(NC(=O)CSc2nc(=O)n(CCN3CCOCC3)c3c2CCC3)cc(OC)c1 | – | inconclusive: 0.891 µM [inhibitor, single point]
Cc1ccnc(SCc2nc3ccccc3s2)n1 | – | inconclusive: 6.51 µM [activator, partial curve, poor fit]
CC1(C)NC(=O)N(CCCCOc2ccc3ccccc3c2Cl)C1=O | – | inconclusive: 29.1 µM [inhibitor, single point]
CC(=O)Nc1cccc(N(C)C)c1 | inactive: -7.91% | –
CC(C)NC(=S)NC(=O)c1ccc(-c2ccccc2)cc1 | – | inconclusive: 35.5 µM [inhibitor, single point]

Entries of single compounds, looked up by structure. Values in the order: activity change, negative = inhibition | Potency
CCc1ccccc1S(=O)(=O)Cc1ccc(C(=O)NCC2CCCO2)o1 (centres undefined) in the list: inactive: 4.62% | –
Cc1nc(-c2ccccn2)sc1C(=O)Nc1ccc(F)cc1F in the list: – | inconclusive: 2.51 µM [activator, full curve]

Additional structures follow.

Compound | activity change, negative = inhibition | Potency
CCOC(=O)C1=C(CSc2nc3ccccc3s2)NC(=O)NC1c1cccc([N+](=O)[O-])c1 (centres undefined) | – | inconclusive: 5.8 µM [inhibitor, full curve]
Cc1ccccc1N(C(=O)c1snc(C(N)=O)c1N)C(C(=O)NCc1ccccc1)c1ccc(O)cc1 (centres undefined) | – | inconclusive: 25.1 µM [inhibitor, single point]
Cc1cc(C)c(C)c(C(=O)CSc2nnc(-c3ccc4[nH]c(C)c(C)c4c3)o2)c1C | – | inconclusive: 35.5 µM [inhibitor, single point]
O=C(NCC1CCCO1)[C@@H]1CSC2c3ccccc3C(=O)N21 (some centres undefined) | – | inconclusive: 0.316 µM [activator, partial curve, poor fit]
COc1ccc(CCN2CCCC(CN(C)C(=O)c3cc(C)oc3C)C2)cc1 (centres undefined) | – | inconclusive: 1 µM [activator, full curve, poor fit]
COc1cc(C(=O)NNC2=NC(C)(C)Cc3cc(C)c(C)cc32)cc(OC)c1OC | inactive: -11.8% | –
C(#Cc1ccccc1)CN1CCN(c2ccccn2)CC1 | – | inactive
O=C(NCCc1nc2ccccc2[nH]1)c1ccc(Br)o1 | inactive: -10.3% [at 46.1 µM] | –
O=C(CSc1nc(=O)n2ccccc2n1)N1CCN(c2ccccc2)CC1 | inactive: 17.6% [at 46.1 µM] | –
O=C(c1ccc(CSc2nc3ccncc3n2Cc2ccccc2)cc1)N1CCCCCC1 | inactive: 26.1% [at 46.1 µM] | –
Cc1ccc(-n2nc(C(=O)N3CCN(c4cc(Cl)ccc4C)CC3)c3c4ccccc4n(C)c3c2=O)cc1 | inactive: -0.958% [at 46.1 µM] | –
O=C(COC(=O)C1(c2ccccc2F)CCCC1)NCc1cccs1 | – | inconclusive: 12.6 µM [inhibitor, single point]
O=C(Nc1ccccc1N1CCOCC1)C1Cc2ccccc2CN1C(=O)c1ccco1 (centres undefined) | inactive: -10.9% [at 46.1 µM] | –
O=C(NCc1cc2ccccc2[nH]1)c1ccccc1F | – | inconclusive: 7.94 µM [inhibitor, partial curve, poor fit]
O=S(=O)(Nc1ccc2c(c1)OCO2)c1cccc(Br)c1 | inactive: 7.73% | –
O=C(CSc1ncnc2c1nnn2Cc1ccccc1)NC1CCCC1 | inactive: -8.18% [at 46.1 µM] | –
COc1ccccc1N(C)S(=O)(=O)c1ccc(C(=O)OCC(=O)Nc2cc(C)on2)cc1 | inactive: 9.42% | –
Cc1ccc2cccc(S(=O)(=O)n3nc(C)cc3C)c2n1 | inactive: -22.9% | –
O=C(NCc1ccco1)c1ccc2c(c1)N(Cc1ccccc1)C(=O)CS2 | – | inconclusive: 0.282 µM [inhibitor, full curve, poor fit]
CN1CCN(NC(=O)c2cc(-c3ccc(Br)s3)nc3ccccc23)CC1 | – | inconclusive: 11.2 µM [inhibitor, partial curve, poor fit]
CC1=NN(C(=O)c2ccco2)C(O)(c2ccccc2)C1 (centres undefined) | inactive: 6.04% [at 46.1 µM] | –
Cc1ccc(NC(=O)C(=O)Nc2ccc(C)cn2)nc1 | – | inconclusive: 7.08 µM [activator, partial curve, poor fit]
COc1ccc(NC(=O)c2ccc3c(c2)OCCO3)cc1OC | – | inconclusive: 15.8 µM [inhibitor, partial curve, poor fit]
O=C(CCc1ccccc1)N/N=C/c1cc(Br)ccc1O | – | active: 22.4 µM
COc1ccc(N=Nc2c(O)[nH]c(=S)[nH]c2=O)cc1 | – | inconclusive: 35.5 µM [inhibitor, single point]

Compound | activity change, negative = inhibition | Potency
CCc1cccc(CC)c1NC(=S)N(CCN(C)C)C(C)c1cccnc1 (centres undefined) | – | inconclusive: 0.708 µM [inhibitor, full curve, poor fit]
Cc1noc(C)c1COc1ccc(C(=O)N2CCN(S(=O)(=O)c3ccc(F)cc3)CC2)cc1 | inactive: -26.9% | –
Nc1c(C(=O)NC2CCCC2)c2nc3ccccc3nc2n1CC1CCCO1 (centres undefined) | – | inconclusive: 0.447 µM [inhibitor, full curve, poor fit]
COc1ccc(-c2csc(NCc3ccco3)n2)cc1 | – | inconclusive: 35.5 µM [inhibitor, single point]
Cc1ccc(Nc2cc(C)nc3c(C)ccc([N+](=O)[O-])c23)cc1 | – | active: 11.2 µM
OC1CCC(Br)CC1C1NC2=C(CCCC2)S1 (centres undefined) | inactive: 11.4% | –
Cc1csc(SCC(=O)NC(C)c2ccc(F)cc2)n1 (centres undefined) | inactive: -1.39% [at 46.1 µM] | –
Cc1cc(C)c(C(=O)/C=C/c2ccc3c(c2)OCO3)c(=O)[nH]1 | inactive: -19% [at 46.1 µM] | –
CCC(C)NC(=O)c1cc2c(=O)n3cccc(C)c3nc2s1 (centres undefined) | – | inconclusive: 1.26 µM [inhibitor, full curve, poor fit]
COc1ccc(-c2nc(NC(=O)CSc3nnc4ccccn34)ns2)cc1 | inactive: -4.23% | –
O=C(c1ccc(F)cc1)n1nc(-c2ccccc2)nc1NCc1ccc(F)cc1 | – | inconclusive: 20 µM [activator, single point]
COc1ccc(CNC(=S)Nc2ccc(F)c(Cl)c2)cc1OC | inactive: -24.3% [at 46.1 µM] | –
COC(=O)Nc1nc(C)c(C(=O)c2ccccc2)s1 | – | inconclusive: 4.47 µM [inhibitor, full curve]
Cc1cc(Cl)ccc1C(=O)C1CCCN(C(=O)c2n[nH]c3c2CCCC3)C1 (centres undefined) | – | inconclusive: 3.98 µM [inhibitor, single point]
Cc1noc(C)c1COC(=O)c1ccc2c(c1)OCCO2 | inactive: 3.03% | –
COC(=O)c1cc(C(=O)N2CCN(c3cccc(Cl)c3)CC2)cc([N+](=O)[O-])c1 | – | inconclusive: 1.26 µM [inhibitor, full curve, poor fit]
Cc1nn(C(C)C(=O)NCCCN2CCCCCC2)c(=O)c2c1sc1ccccc12 (centres undefined) | inactive: -27.3% [at 46.1 µM] | –
Cc1ccnc(NC(=O)C2CCN(S(=O)(=O)c3ccc4c(c3)CC(C)N4C(=O)C3CCC3)CC2)c1 (centres undefined) | – | inconclusive: 12.6 µM [inhibitor, partial curve, poor fit]
Cn1nnc2ccccc2c1=O | inactive: 1.33% [at 46.1 µM] | –
COC(=O)C1=C(Nc2ccc(C)cc2)C=C(C)C(C(=O)OC)C1c1ccc(OC)cc1 (centres undefined) | – | inconclusive: 18.3 µM [inhibitor, single point]
COc1ccc(C(=O)NC(=S)Nc2ccc(N3CCN(C(C)=O)CC3)cc2)cc1[N+](=O)[O-] | inactive: 4.68% | –
CC1CCN(Cc2c(C(=O)N/N=C/c3ccc(C(F)(F)F)cc3)nnn2-c2nonc2N)CC1 | – | inconclusive: 17.8 µM [inhibitor, partial curve, poor fit]
O=C1C(=O)N(CNc2ccccn2)c2ccccc21 | – | inconclusive: 7.3 µM [inhibitor, partial curve, poor fit]
CC(NC(=O)COC(=O)C1=COCCO1)C12CC3CC(CC(C3)C1)C2 (centres undefined) | – | inconclusive: 17.8 µM [inhibitor, single point]

Filtered by structure, the entries above with a CF3 group.
Compound | activity change, negative = inhibition | Potency
CCCCNC(=O)c1cc2nc3c(c(C(F)(F)F)n2n1)CCc1ccccc1-3 | inactive: 20.5% | –
CC1CCN(Cc2c(C(=O)N/N=C/c3ccc(C(F)(F)F)cc3)nnn2-c2nonc2N)CC1 | – | inconclusive: 17.8 µM [inhibitor, partial curve, poor fit]
